Results are given in words; binding and its absence hold for the method and conditions named. In cells and extracts the contact can be indirect. Some binding calls cover weakened binding; strength is not graded here. Sequences can lack the tags named with a protein.
Molecular target: RXRalpha amino acids 225-462 construct (Homo sapiens (Human)) (UniProt P19793)
Assay: co-expression in E. coli; untagged RXRalpha co-purified with His6-PXR on Ni chelation resin, then size exclusion

Amino acid sequences for entries named in this document (tags omitted). A change or cut given only in a name is not applied to a line headed by its entry.
UniProt P19793: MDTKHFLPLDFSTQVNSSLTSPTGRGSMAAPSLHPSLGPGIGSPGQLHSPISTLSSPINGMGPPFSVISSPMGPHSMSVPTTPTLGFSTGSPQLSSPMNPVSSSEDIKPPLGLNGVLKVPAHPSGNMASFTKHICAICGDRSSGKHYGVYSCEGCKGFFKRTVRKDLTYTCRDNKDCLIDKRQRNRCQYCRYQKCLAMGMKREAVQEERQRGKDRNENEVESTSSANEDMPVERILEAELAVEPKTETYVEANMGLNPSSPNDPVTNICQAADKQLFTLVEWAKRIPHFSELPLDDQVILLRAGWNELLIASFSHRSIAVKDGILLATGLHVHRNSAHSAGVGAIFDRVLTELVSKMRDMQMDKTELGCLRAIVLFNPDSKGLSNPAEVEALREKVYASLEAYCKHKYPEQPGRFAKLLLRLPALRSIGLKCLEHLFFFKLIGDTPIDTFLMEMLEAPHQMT

B1: His6-PXR (human PXR amino acids 130-434 with N-terminal polyhistidine tag) (receptor)
chain: MKKGHHHHHHGSERTGTQPLGVQGLTEEQRMMIRELMDAQMKTFDTTFSHFKNFRLPGVLSSGCELPESLQAPSREEAAKWSQVRKDLCSLKVSLQLRGEDGSVWNYKPPADSGGKEIFSLLPHMADMSTYMFKGIISFAKVISYFRDLPIEDQISLLKGAAFELCQLRFNTVFNAETGTWECGRLSYCLEDTAGGFQQLLLEPMLKFHYMLKKLQLHEEEYVLMQAISLFSPDRPGVLQHRVVDQLQEQFAITLKSYIECNRPQPAHRFLFLKIMAMLTELRSINAQHTQRLLRIQDIHPFATPLMQELFGITGS
Q: Which binding does the source give for B1 here?
A: Its binding is “binds”.

Reference: patent publication US20080096239A1
